{"source": "patent US7989629B2", "about": "“3-(4-{ [4-(4-{ [3-(3, 3-dimethyl-1-piperidinyl) propyl] oxy} phenyl)-1-piperidinyl] carbonyl}-1-naphthalenyl) propanoic or propenoic acid as H1 and H3 receptor antagonists for the treatment of inflammatory and/or allergic disorders” (Glaxo Group Limited, priority 2005, dated 2011)", "assay": "CNS penetration", "conditions": "rat, in vivo", "note": "Some of these results come from one statement about several compounds together."}
{"smiles": "CC1(C)CCCN(CCCOc2ccc(C3CCN(C(=O)c4ccc(CCC(=O)O)c5ccccc45)CC3)cc2)C1.Cl", "note": "[Example 3, 3-(4-{[4-(4-{[3-(3,3-dimethyl-1-piperidinyl)propyl]oxy}phenyl)-1-piperidinyl]carbonyl}-1-naphthalenyl)propanoic acid, hydrochloride salt]", "values": [{"measurement": "CNS penetration", "value": "less than 50 ng/gm"}]}
{"smiles": "CC1(C)CCCN(CCCOc2ccc(C3CCN(C(=O)c4ccc(CCC(=O)O)c5ccccc45)CC3)cc2)C1", "note": "[Example 1, 3-(4-{[4-(4-{[3-(3,3-dimethyl-1-piperidinyl)propyl]oxy}phenyl)-1-piperidinyl]carbonyl}-1-naphthalenyl)propanoic acid, formic acid (1:1)]", "values": [{"measurement": "CNS penetration", "value": "less than 50 ng/gm"}]}
